Reference: PubChem BioAssay AID1224828 (NIAID, 2016)
The whole screen tested about 17,000 reagents; this is an unselected part. Over the whole deposit, 762 (4.5%) were called active. 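Active calls include both raised and lowered p65 entry, mostly lowered; wells with fewer than 50 cells lack a z-score.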 Raw values vary from plate to plate and are shown uncorrected.

- Purpose: 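Regulators linking TLR4 signalling to p65 nuclear translocation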 (primary screen)
- System: mouse RAW264.7 G9 macrophage reporter cells (GFP-p65, Tnf promoter-mCherry)
- Reagent: siRNA pool against mouse genes, 100 nM
- Timing: 2 days siRNA transfection, then 40 min LPS before fixation
- Challenge: LPS (Salmonella minnesota R595) at 10 ng/ml
- Measured: 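Microscopy ratio of nuclear to perinuclear-ring GFP-p65 signal, scaled to the plate median; gene score is the average of two replicate robust z-scores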
- Scale: p65 translocation robust z-score: higher = more nuclear NF-kappaB p65 after LPS than the plate median; nuclear/cytoplasmic p65 ratio: higher = more nuclear NF-kappaB p65
- Rule for the call: 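Active if robust z is above 3.3 (negative regulators) or below -1.56, the Tlr4 control median (positive regulators); activity score 50 or more; control wells not called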
- Meaning of the calls: active = hit (p65 shift raised or lowered); inactive = no clear change

The opening 7 entries as a preview:
gene	p65 translocation robust z-score	nuclear/cytoplasmic p65 ratio, rep 1	nuclear/cytoplasmic p65 ratio, rep 2	low cell count flag	Outcome
Or52d3	0.58	1.52	1.34	enough cells to score	inactive
Ufc1		1.3	1.35	fewer than 50 cells per well; well left out of scoring	inactive
Kcnn4		1.24	1.19	fewer than 50 cells per well; well left out of scoring	inactive
Hamp2	-1.39	1.16	1.14	enough cells to score	inactive
Taco1		1.53	1.45	fewer than 50 cells per well; well left out of scoring	inactive
Fxyd5	0.99	1.79	1.55	enough cells to score	inactive
Evi2a	-0.69	1.47	1.57	enough cells to score	inactive

The list itself, from the first entry:
gene	p65 translocation robust z-score	nuclear/cytoplasmic p65 ratio, rep 1	nuclear/cytoplasmic p65 ratio, rep 2	low cell count flag	Outcome
Or52d3	0.58	1.52	1.34	enough cells to score	inactive
Ufc1		1.3	1.35	fewer than 50 cells per well; well left out of scoring	inactive
Kcnn4		1.24	1.19	fewer than 50 cells per well; well left out of scoring	inactive
Hamp2	-1.39	1.16	1.14	enough cells to score	inactive
Taco1		1.53	1.45	fewer than 50 cells per well; well left out of scoring	inactive
Fxyd5	0.99	1.79	1.55	enough cells to score	inactive
Evi2a	-0.69	1.47	1.57	enough cells to score	inactive
Sgsm2	-1.6	1.31	1.34	enough cells to score	active
Zbtb14	0.01	1.53	1.49	enough cells to score	inactive
Smtnl2	-0.52	1.54	1.65	enough cells to score	inactive
Reg4	-0.2	1.54	1.2	enough cells to score	inactive
Pdcd6ip	-0.53	1.4	1.32	enough cells to score	inactive
Atf2	-0.05	1.56	1.66	enough cells to score	inactive
Sgpp1	-0.29	1.58	1.44	enough cells to score	inactive
Tgm3		1.55	1.4	fewer than 50 cells per well; well left out of scoring	inactive
Prc1		1.45	1.25	fewer than 50 cells per well; well left out of scoring	inactive
Elmo2	-0.29	1.39	1.36	enough cells to score	inactive
Pcdhb17	-1	1.34	1.13	enough cells to score	inactive
Sox4	-0.65	1.43	1.48	enough cells to score	inactive
Nck2	-0.18	1.41	1.33	enough cells to score	inactive
Mgat4e		1.08	1.06	fewer than 50 cells per well; well left out of scoring	inactive
Gcat	1.22	1.72	1.68	enough cells to score	inactive
Romo1		1.81	0	fewer than 50 cells per well; well left out of scoring	inactive
Ssu72		1.32	1.46	fewer than 50 cells per well; well left out of scoring	inactive
Ehd4	1.73	1.89	1.41	enough cells to score	inactive
Xkr8	-0.35	1.16	1.26	enough cells to score	inactive
Srr	0.68	1.46	1.35	enough cells to score	inactive
2900060N12Rik		1.19	1.33	fewer than 50 cells per well; well left out of scoring	inactive
Fbxo46	-0.17	1.34	1.65	enough cells to score	inactive
Zswim1		1.54	1.13	fewer than 50 cells per well; well left out of scoring	inactive
Tram1	0.44	1.6	1.54	enough cells to score	inactive
Bmal2	-0.03	1.66	1.57	enough cells to score	inactive
Cideb	-0.25	1.41	1.35	enough cells to score	inactive
Aldh8a1	-0.33	1.5	1.69	enough cells to score	inactive
Ubxn2b		1.17	1.15	fewer than 50 cells per well; well left out of scoring	inactive
Dbi	-0.06	1.45	1.37	enough cells to score	inactive
Relt	-0.68	1.36	1.48	enough cells to score	inactive
Tmcc2		1.4	1.43	fewer than 50 cells per well; well left out of scoring	inactive
Or1e1f	-1.44	1.4	1.23	enough cells to score	inactive
Plbd1	2.28	1.92	1.7	enough cells to score	inactive
Or1r1		1.14	1.3	fewer than 50 cells per well; well left out of scoring	inactive
Slc25a22		1.29	1.15	fewer than 50 cells per well; well left out of scoring	inactive
Fig4	1.3	1.89	1.73	enough cells to score	inactive
Aldh3a1	-0.94	1.49	1.46	enough cells to score	inactive
Or5m10	0.22	1.76	1.55	enough cells to score	inactive
Stradb	-1.71	1.34	1.23	enough cells to score	active
Gpat3	0.85	1.37	1.4	enough cells to score	inactive
Ccr8		1.52	1.57	fewer than 50 cells per well; well left out of scoring	inactive
Aph1b		1.04	1.45	fewer than 50 cells per well; well left out of scoring	inactive
Tcl1b4		0	1.25	fewer than 50 cells per well; well left out of scoring	inactive
B3gnt5	0.8	1.63	1.71	enough cells to score	inactive
Snx11	0.43	1.38	1.28	enough cells to score	inactive
Nit1	-0.87	1.6	1.39	enough cells to score	inactive
Commd5	-0.96	1.46	1.59	enough cells to score	inactive
Cnot2	2.98	1.88	1.75	enough cells to score	inactive
Eef2k	-1.82	1.4	1.18	enough cells to score	active
6430548M08Rik	0	1.32	1.51	enough cells to score	inactive
Or10ag2	-0.19	1.66	1.52	enough cells to score	inactive
Paxx	0.46	1.66	1.91	enough cells to score	inactive
